According to patent publication US6630318:
No constants are given. Whether binding was seen depends on the method and setting. Some binding calls cover weakened binding; strength is not graded here.

By UniProt entry, the sequences of proteins in these tests, tags left out. Where a name states a change or a piece, a line headed by the entry shows the natural chain unless it says otherwise.
UniProt Q03160: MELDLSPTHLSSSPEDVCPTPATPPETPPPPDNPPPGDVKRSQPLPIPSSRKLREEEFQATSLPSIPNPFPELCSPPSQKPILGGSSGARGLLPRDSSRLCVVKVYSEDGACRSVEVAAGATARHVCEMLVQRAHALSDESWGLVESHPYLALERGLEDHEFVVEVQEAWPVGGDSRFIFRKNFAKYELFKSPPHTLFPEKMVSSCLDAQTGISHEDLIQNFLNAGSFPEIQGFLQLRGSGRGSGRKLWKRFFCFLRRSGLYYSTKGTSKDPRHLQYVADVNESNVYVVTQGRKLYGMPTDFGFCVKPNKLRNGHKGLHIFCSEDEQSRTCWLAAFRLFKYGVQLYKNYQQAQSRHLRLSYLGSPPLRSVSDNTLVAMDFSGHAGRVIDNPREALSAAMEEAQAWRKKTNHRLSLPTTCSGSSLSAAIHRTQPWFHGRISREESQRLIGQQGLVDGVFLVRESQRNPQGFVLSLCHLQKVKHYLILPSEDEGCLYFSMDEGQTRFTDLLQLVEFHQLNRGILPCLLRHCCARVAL

Molecular target: EGFR/HER2 chimera (HER2 intracellular domain fused to the EGF-Receptor extracellular domain), expressed in NIH 3T3 cells (UniProt P00533)
Experiment: anti-GRB-7 immunoprecipitation from EGF stimulated NIH 3T3 cells with the chimera and GRB-7, anti-PTyr blot (FIG. 7A)

GRB-7 transfected into NIH 3T3 cells expressing the EGFR/HER2 chimera (from UniProt Q03160 1-535)
binding: binds
